Assay results as given in the supplement of paper PMC7877785.
± gives the uncertainty stated by the source. Many of these values have a large error.

Assay: self-splicing fitness, log relative to wild type (ln ratio); higher = more splicing; Tetrahymena group I intron in knt gene, E. coli kanamycin selection, DiMSum; sequences stand for … in CUCUCU…GGAGGGAAAAGUUAUCAGGCAUGCACCUGGUAGCUAGUCUUUAAACCAAUAGAUUGCAUCGGUUUAAAAGGCAAGACCGUCAAAUUGCGGGAAAGGGGUCAACAGCCGUUCAGUACCAAGUCUCAGGGGAAACUUUGAGAUGGCCUUGCAAAGGGUAUGGUAAUAAGCUGACGGACAUGGUCCUAACCACGCAGCCAAGUCCUAAGUCAACAGAUCUUCUGUUGAUAUGGAUGCAGUUCACAGACUAAAUGUCGGUCGGGGAAGAUGUAUUCUUCUCAUAAGAUAUAGUCGGACCUCUCCUUAAUGGGAGCUAGCGGAUGAAGUGAUGCAACACUGGAGCCGCUGGGAACUAAUUUGUAUGCGAAAGUAUAUUGAUUAGUUUUGGAGUACUCGUGGUCG
Outline: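 DiMSum derived fitness as the error-weighted combination of fold changes across replicates, kanamycin versus no kanamycin, normalised to wild type. E. coli BL21(DE3) held the library, which randomised all eight P1ex-region intron nucleotides within the knt kanamycin-resistance gene on pET-22b(+). Six replicate transformations grew overnight at 37°C or 30°C on LB agar with or without 25 μg/mL kanamycin, also containing 100 μg/mL carbenicillin, 50 μM IPTG and 0.2% rhamnose, and pooled colonies were amplicon-sequenced on an Illumina HiSeq 2500.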

| Sequence | self-splicing fitness (ln) (30 °C) | self-splicing fitness (ln) (37 °C) |
| --- | --- | --- |
| CUCUAGCAAUAUUACGAGUA | -3.39 ± 0.65 | – |
| UUUAAGCAAUAUUACGUUCC | -4.08 ± 0.73 | -1.53 ± 0.69 |
| GUUGAGCAAUAUUACGCCUG | -3.02 ± 0.51 | – |
| GCGGAGCAAUAUUACGAAUC | – | -1.52 ± 0.71 |
| CUCCAGCAAUAUUACGAUCA | -3.51 ± 0.73 | -0.538 ± 0.68 |
| UGCCAGCAAUAUUACGACUC | -2.15 ± 0.51 | -1.34 ± 0.62 |
| AGAUAGCAAUAUUACGCAGA | -2.95 ± 0.18 | -2.32 ± 0.2 |
| CUAGAGCAAUAUUACGCCCU | – | -1.33 ± 0.82 |
| GUGCAGCAAUAUUACGCAUG | -3.11 ± 0.29 | -0.586 ± 0.16 |
| UCCAAGCAAUAUUACGCCGC | – | -2.24 ± 0.55 |
| UCAGAGCAAUAUUACGAGGC | – | -2.48 ± 1.1 |
| UAGGAGCAAUAUUACGACGU | -1.71 ± 0.69 | – |
| CUUAAGCAAUAUUACGGUUA | -4.03 ± 1 | – |
| CUCUAGCAAUAUUACGCAGC | – | -3.43 ± 0.6 |
| UGGCAGCAAUAUUACGCUUC | – | -2.39 ± 1.1 |
| CCUGAGCAAUAUUACGGCCG | -2.47 ± 0.66 | – |
| GCCGAGCAAUAUUACGGCUU | -4.87 ± 1 | -2.08 ± 0.41 |
| CCCUAGCAAUAUUACGAGCC | – | -3.53 ± 0.73 |
| UUGUAGCAAUAUUACGAGAG | – | -3.15 ± 0.52 |
| AUCCAGCAAUAUUACGGUCU | -0.68 ± 0.053 | -0.109 ± 0.074 |
| GUGUAGCAAUAUUACGUCUC | -2.02 ± 1.2 | -0.769 ± 0.72 |
| GGAGAGCAAUAUUACGGCAG | – | -3.43 ± 0.6 |

Individual results from the results shown:
Value of GUGUAGCAAUAUUACGUCUC under self-splicing fitness (ln) (30 °C): -2.02 ± 1.2
Value of CUAGAGCAAUAUUACGCCCU under self-splicing fitness (ln) (37 °C): -1.33 ± 0.82

The results go on.

| Sequence | self-splicing fitness (ln) (30 °C) | self-splicing fitness (ln) (37 °C) |
| --- | --- | --- |
| GCGGAGCAAUAUUACGGGUC | -5.62 ± 1 | -1.94 ± 0.55 |
| GAGGAGCAAUAUUACGCACC | – | -1.62 ± 1.1 |
| CCGAAGCAAUAUUACGACCA | -2.66 ± 1.1 | -0.32 ± 0.56 |
| GUUGAGCAAUAUUACGACCG | -4.36 ± 1 | – |
| UUGUAGCAAUAUUACGUAAC | -3 ± 0.55 | – |
| GACUAGCAAUAUUACGCUCG | -1.01 ± 0.14 | -0.0622 ± 0.19 |
| GCGUAGCAAUAUUACGCAAG | – | -5 ± 1 |
| GUCUAGCAAUAUUACGCUGC | -5.11 ± 0.58 | – |
| UUUAAGCAAUAUUACGAGUC | -3.31 ± 0.6 | – |
| GAAUAGCAAUAUUACGCCAC | – | -3.39 ± 1 |
| UUGCAGCAAUAUUACGCCGC | -3.47 ± 1 | – |
| UUUUAGCAAUAUUACGCGUC | -2.37 ± 0.64 | – |
| GUGUAGCAAUAUUACGAUCA | -0.818 ± 0.13 | -0.543 ± 0.14 |
| GAGGAGCAAUAUUACGUUGC | -4.07 ± 0.53 | -2.11 ± 0.64 |
| CCUGAGCAAUAUUACGGGAC | -4.19 ± 0.46 | -2.08 ± 0.27 |
| CGCGAGCAAUAUUACGAUCC | – | -1.51 ± 0.54 |
| UUUUAGCAAUAUUACGAUCG | – | -0.679 ± 0.5 |
| GGGAAGCAAUAUUACGGCCC | -3.07 ± 0.64 | -2.32 ± 0.51 |
| CUUCAGCAAUAUUACGUCUA | -4.73 ± 1 | – |
| CCCGAGCAAUAUUACGCAAG | – | -2.34 ± 0.54 |
| GUAGAGCAAUAUUACGGAAC | – | -1.41 ± 0.58 |
